Values from PubChem BioAssay AID1259405 (NCATS, 2018).
Aim: 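Silenced genes that increase secreted GFP made by CHO cells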 (primary screen). Cells: Chinese hamster CHO-K1 ovary cells with stable secreted eGFP expression. Reagents: single siRNA against mouse genes, 0.8 pmol siRNA per well (2 µl of 400 nM stock). Timing: 3 days. Detection: 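Percent of the per-plate non-targeting control median for intracellular GFP per well by laser scanning cytometry and for cell viability by ATP luminescence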. Scale: GFP, % of control: higher = more GFP per well, higher productivity; viability (ATP), % of control: higher = more viable cells (more ATP). Rule for the call: 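Called active when intracellular GFP, relative to negative control, is at or above 120%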.
Shown is a random part of about 50,000 reagents. Over the whole deposit, about 4,000 (8%) were called active. 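Mouse siRNA library applied to hamster cells; one well for each siRNA.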 Entries without a mark were called inactive. The numbers tell different reagents against one gene apart. No sequences are given here.

| gene symbol | reagent no. | GFP, % of control | viability (ATP), % of control |
| --- | --- | --- | --- |
| Ppan (peter pan homolog) | 1 | 77.5 | 49.1 |
| Ppan (peter pan homolog) | 2 | 96.3 | 81.6 |
| Ccdc92b (coiled-coil domain containing 92B) | 1 | 79.5 | 105 |
| Ccdc92b (coiled-coil domain containing 92B) | 2 | 83.1 | 64.7 |
| Ccdc92b (coiled-coil domain containing 92B) | 3 | 93.5 | 71.1 |
| Tlr6 (toll-like receptor 6) | 1 | 94.9 | 71.8 |
| Tlr6 (toll-like receptor 6) | 2 | 76.8 | 59.9 |
| Tlr6 (toll-like receptor 6) | 3 | 67.8 | 60.2 |
| Ramp3 (receptor (calcitonin) activity modifying protein 3) | 1 | 71.3 | 60.8 |
| Ramp3 (receptor (calcitonin) activity modifying protein 3) | 2 | 97.8 | 60.2 |
| Ramp3 (receptor (calcitonin) activity modifying protein 3) | 3 | 14.3 | 4.4 |
| Agpat3 (1-acylglycerol-3-phosphate O-acyltransferase 3) | 1 | 89.9 | 90.8 |
| Agpat3 (1-acylglycerol-3-phosphate O-acyltransferase 3) | 2 | 74 | 61.2 |
| Agpat3 (1-acylglycerol-3-phosphate O-acyltransferase 3) | 3 | 71.3 | 71.6 |
| Prdx1 (peroxiredoxin 1) | 1 | 79.7 | 77.2 |
| Prdx1 (peroxiredoxin 1) | 2 | 87.4 | 68 |
| Prdx1 (peroxiredoxin 1) | 3 | 57.9 | 39.4 |
| Cish (cytokine inducible SH2-containing protein) | 1 | 78.1 | 89 |
| Cish (cytokine inducible SH2-containing protein) | 2 | 71.2 | 95.5 |
| Cish (cytokine inducible SH2-containing protein) | 3 | 98.4 | 125 |
| Sbno1 (strawberry notch 1) | 1 | 88.7 | 67.7 |
| Sbno1 (strawberry notch 1) | 2 | 71.5 | 77.6 |
| Sbno1 (strawberry notch 1) | 3 | 71.2 | 51.6 |
| Or3a4 (olfactory receptor family 3 subfamily A member 4) | 1 | 106 | 43.9 |
| Or3a4 (olfactory receptor family 3 subfamily A member 4) | 2 | 93.3 | 97.2 |
| Or3a4 (olfactory receptor family 3 subfamily A member 4) | 3 | 40.1 | 41.8 |
| Ltc4s (leukotriene C4 synthase) | 1 | 101 | 80.7 |
| Ltc4s (leukotriene C4 synthase) | 2 | 48.1 | 69.7 |
| Ltc4s (leukotriene C4 synthase) | 3 | 81.3 | 65.5 |
| Plekhh3 (pleckstrin homology, MyTH4 and FERM domain containing H3) | 1 | 84.6 | 82.8 |
| Plekhh3 (pleckstrin homology, MyTH4 and FERM domain containing H3) | 2 | 85.2 | 118 |
| Plekhh3 (pleckstrin homology, MyTH4 and FERM domain containing H3) | 3 | 139 (active) | 153 |
| Mbtps2 (membrane-bound transcription factor peptidase, site 2) | 1 | 81.9 | 74 |
| Mbtps2 (membrane-bound transcription factor peptidase, site 2) | 2 | 49.1 | 52.3 |
| Mbtps2 (membrane-bound transcription factor peptidase, site 2) | 3 | 65.6 | 46.8 |
| Slco1a4 | 1 | 90.7 | 67.8 |
| Slco1a4 | 2 | 124 (active) | 101 |
| Slco1a4 | 3 | 85.8 | 96.8 |
| Or52w1 (olfactory receptor family 52 subfamily W member 1) | 1 | 67.7 | 66.2 |
| Or52w1 (olfactory receptor family 52 subfamily W member 1) | 2 | 68.6 | 68.2 |
| Or52w1 (olfactory receptor family 52 subfamily W member 1) | 3 | 78.9 | 97.2 |
| Carf (calcium response factor) | 1 | 106 | 64.8 |
| Carf (calcium response factor) | 2 | 37.6 | 47.4 |
| Carf (calcium response factor) | 3 | 68.7 | 105 |
| Rbpms2 (RNA binding protein with multiple splicing 2) | 1 | 83.8 | 93.9 |
| Rbpms2 (RNA binding protein with multiple splicing 2) | 2 | 81.6 | 88.4 |
| Rbpms2 (RNA binding protein with multiple splicing 2) | 3 | 63.8 | 78.4 |
| Gyg1 (glycogenin 1) | 1 | 43.9 | 62.1 |
| Gyg1 (glycogenin 1) | 2 | 109 | 130 |
| Gyg1 (glycogenin 1) | 3 | 112 | 120 |
| E030011O05Rik (RIKEN cDNA E030011O05 gene) | 1 | 53.5 | 55.6 |
| E030011O05Rik (RIKEN cDNA E030011O05 gene) | 2 | 89.8 | 71 |
| E030011O05Rik (RIKEN cDNA E030011O05 gene) | 3 | 120 (active) | 80.1 |
| Tnpo2 (transportin 2 (importin 3, karyopherin beta 2b)) | 1 | 102 | 80 |
| Tnpo2 (transportin 2 (importin 3, karyopherin beta 2b)) | 2 | 81.5 | 65.8 |
| Tnpo2 (transportin 2 (importin 3, karyopherin beta 2b)) | 3 | 76.2 | 57.6 |
| Tpbg (trophoblast glycoprotein) | 1 | 125 (active) | 90.2 |
| Tpbg (trophoblast glycoprotein) | 2 | 77.1 | 80.4 |
| Tpbg (trophoblast glycoprotein) | 3 | 52.2 | 69.7 |
| Epha1 (Eph receptor A1) | 1 | 70 | 91.8 |
| Trem5 (triggering receptor expressed on myeloid cells 5) | 1 | 72.5 | 64.5 |
| Trem5 (triggering receptor expressed on myeloid cells 5) | 2 | 76 | 72.5 |
| Trem5 (triggering receptor expressed on myeloid cells 5) | 3 | 93.1 | 82.9 |
| Actl7b (actin-like 7b) | 1 | 57.6 | 52 |
| Actl7b (actin-like 7b) | 2 | 72.1 | 90.6 |
| Katnal1 (katanin p60 subunit A-like 1) | 1 | 55 | 83.8 |
| Katnal1 (katanin p60 subunit A-like 1) | 2 | 51.5 | 63.5 |
| Katnal1 (katanin p60 subunit A-like 1) | 3 | 54.3 | 68.5 |
| Abo | 1 | 71.5 | 77.8 |
| Abo | 2 | 90.7 | 68.7 |
| Abo | 3 | 66 | 53.4 |
| Serpini1 (serine (or cysteine) peptidase inhibitor, clade I, member 1) | 1 | 106 | 110 |
| Serpini1 (serine (or cysteine) peptidase inhibitor, clade I, member 1) | 2 | 46.8 | 48.4 |
| Serpini1 (serine (or cysteine) peptidase inhibitor, clade I, member 1) | 3 | 107 | 86.7 |
| Serpinb9d (serine (or cysteine) peptidase inhibitor, clade B, member 9d) | 1 | 87.7 | 77.7 |
| Serpinb9d (serine (or cysteine) peptidase inhibitor, clade B, member 9d) | 2 | 100 | 82.2 |
| Serpinb9d (serine (or cysteine) peptidase inhibitor, clade B, member 9d) | 3 | 131 (active) | 119 |
| 8030451A03Rik (RIKEN cDNA 8030451A03 gene) | 1 | 14.5 | 33.6 |
| 8030451A03Rik (RIKEN cDNA 8030451A03 gene) | 2 | 104 | 104 |
| 8030451A03Rik (RIKEN cDNA 8030451A03 gene) | 3 | 138 (active) | 151 |
| Obsl1 (obscurin-like 1) | 1 | 59 | 62.9 |
| Obsl1 (obscurin-like 1) | 2 | 63.1 | 88.8 |
| Obsl1 (obscurin-like 1) | 3 | 83.1 | 74.3 |
| Slco5a1 | 1 | 83.9 | 80.2 |
| Slco5a1 | 2 | 79.9 | 87.7 |
| Slco5a1 | 3 | 70.9 | 33.3 |
